In data set [1] the target is T1, NF-kB p50/p50 (UniProt A0A9J7F5I3).
T1 sequence (looked up, limits assumed): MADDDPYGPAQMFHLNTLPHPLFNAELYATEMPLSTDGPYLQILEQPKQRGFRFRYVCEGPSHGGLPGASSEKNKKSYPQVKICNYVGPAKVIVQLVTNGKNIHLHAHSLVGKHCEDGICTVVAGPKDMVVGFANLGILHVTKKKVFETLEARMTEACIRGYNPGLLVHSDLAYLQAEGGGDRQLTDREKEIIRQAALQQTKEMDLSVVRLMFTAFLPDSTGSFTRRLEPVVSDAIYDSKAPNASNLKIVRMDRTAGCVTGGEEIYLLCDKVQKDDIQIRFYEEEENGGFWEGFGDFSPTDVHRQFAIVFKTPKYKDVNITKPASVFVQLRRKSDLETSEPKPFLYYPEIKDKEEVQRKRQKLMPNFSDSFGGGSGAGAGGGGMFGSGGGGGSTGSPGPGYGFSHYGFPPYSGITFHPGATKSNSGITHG
Put plainly: EMSA supershift. The conditions noted are these: ER-stressed CHO nuclear extract; 10 mM Tris pH 7.5, 50 mM NaCl, 10% glycerol, 1% NP-40, 1 mM EDTA, 0.1 ug/ul poly-dI.dC, 0.01 pmol probe, 15 min room temperature; protein in an extract; label: 32P. For orientation: Mobility shift assays separate free from complexed probe on a gel.

Data set [2] deals with NF-kB p65 + NF-kB p50. Put plainly: EMSA supershift. The conditions noted are these: 10 mM Tris pH 7.5, 50 mM NaCl, 10% glycerol, 1% NP-40, 1 mM EDTA, 0.1 ug/ul poly-dI.dC, 0.01 pmol probe, 15 min room temperature, protein in an extract, label: 32P.
In data set [3] the target is T1, NF-kB p50/p50. Kind of data set: competition with a labelled probe. Particulars: ER-stressed CHO nuclear extract; 10 mM Tris pH 7.5, 50 mM NaCl, 10% glycerol, 1% NP-40, 1 mM EDTA, 0.1 ug/ul poly-dI.dC, 0.01 pmol probe, 15 min room temperature; protein in an extract; folded or branched DNA.
The test system of data set [4] is NF-kB p65 + NF-kB p50. Put plainly: competition with a labelled probe. The conditions noted are these: 10 mM Tris pH 7.5, 50 mM NaCl, 10% glycerol, 1% NP-40, 1 mM EDTA, 0.1 ug/ul poly-dI.dC, 0.01 pmol probe, 15 min room temperature, protein in an extract, folded or branched DNA.
Where [5] appears, read: DTT- or Tg-treated MEF nuclear extract.
Where [6] appears, read: ER-stressed CHO nuclear extract.

The exact form of at least one protein or probe is not confirmed. Results from cells or extracts need not show a direct contact. For part of these data: No signal at the amounts used counts as a negative. For part of these data: Protein sequences can lack the tags named with them.

For the sequence “AGTTGAGGGGACTTTCCCAGGC (double strand) [NF-kB probe]”, the binding result in data set [1], in data set [2] (setting [5]) and in data set [2] (setting [6]) was “binds” throughout.

For “CTGGGGACTTTCCAGGTTAGCTTCCTGGAAAGTCCCCAG [kB wt competitor hairpin]”, the binding result in data set [3], in data set [4] (setting [5]) and in data set [4] (setting [6]) was “binds” in each case.

As for “CTGTCTACTTTCCAGGTTAGCTTCCTGGAAAGTAGACAG [kB mt competitor hairpin]”, the binding result in data set [3], in data set [4] (setting [5]) and in data set [4] (setting [6]) was “no binding” in each case.

The values are drawn from PMC3482226.
